Measurements reported in patent US8552007B2, “Mesoionic pesticides” (E.I. du Pont de Nemours and Company, priority 2008, dated 2013).
Counter-ions that a name gives are not always drawn. Like-named read-outs stand apart in the source and are kept apart here. Some entries share one result that the patent states for a list of compounds. For some assays here: For at least one compound, name, drawing or mass did not settle the structure.

Experiments:
Assay type in all cases: in vivo
[1] = tested on: corn planthopper (Peregrinus maidis); settings: maize plant, 6 days
[2] = tested on: diamondback moth (Plutella xylostella); assay: Test A: control of diamondback moth, foliar spray on pre-infested radish plant; settings: sprayed at 250 ppm, 6 days at 25° C., very good to excellent control
[3] = tested on: green peach aphid (Myzus persicae); settings: sprayed at 250 ppm; radish plant; 6 days
Text: For evaluating control of green peach aphid (Myzus persicae) through contact and/or systemic means, the test unit consisted of a small open container with a 12-15-day-old radish plant inside. This was pre-infested by placing on a leaf of the test plant 30-40 aphids on a piece of leaf excised from a culture plant (cut-leaf method). The aphids moved onto the test plant as the leaf piece desiccated. After pre-infestation, the soil of the test unit was covered with a layer of sand.
Test compounds were formulated and sprayed at 250 ppm as described for Test A. The applications were replicated three times. After spraying of the formulated test compound, each test unit was allowed to dry for 1 h and then a black, screened cap was placed on top. The test units were held for 6 days in a growth chamber at 19-21° C. and 50-70% relative humidity. Each test unit was then visually assessed for insect mortality.

[4] = tested on: potato leafhopper (Empoasca fabae); settings: Soleil bean plant, 6 days
[5] = tested on: Western Flower Thrip (Frankliniellla occidentalis); assay: Test G: control of Western Flower Thrip through contact and/or systemic means, Soleil bean plant; settings: sprayed at 250 ppm, 7 days
[6] = tested on: cat flea (Ctenocephalides felis); settings: 30 ppm in bovine blood; adult fleas; 72 h
Procedure: For evaluating control of the cat flea (Ctenocephalides felis), a test compound was solubilized in propylene glycol/glycerol formal (60:40) and then diluted in bovine blood to a final test rate of 30 ppm. The treated blood was placed in a tube with the bottom of the tube covered with a membrane. Approximately 10 adult cat fleas were allowed to feed through the membrane on the treated blood. The adult fleas were evaluated for mortality 72 h later.

[7] = tested on: cat flea (Ctenocephalides felis); assay: Test J: control of cat flea following oral administration of test compound to a mouse; settings: CD-1 mouse orally dosed 10 mg/kg; fleas applied 2 h after dosing; 48 hours after flea application
[8] = tested on: fall armyworm (Spodoptera frugiperda); assay: Test B: control of fall armyworm, foliar spray on pre-infested maize plant; settings: sprayed at 250 ppm, very good to excellent control

SMILES	mortality ([1]; sprayed at 50 ppm) [%]	control efficacy: feeding damage (40% or less feeding damage and/or 100% mortality) [2] [%]	mortality [3]	mortality ([4]; sprayed at 50 ppm) [%]	control efficacy: plant damage (30% or less plant damage and/or 100% mortality) [5] [%]	also measured
COc1ccc(-c2c([O-])[n+](Cc3ccc(Cl)nc3)c3ccccn3c2=O)cn1 [Compound 575]	≥ 80	≤ 40	at least 80%	≥ 80		mortality ([1]; sprayed at 250 ppm): at least 80%; mortality ([4]; sprayed at 250 ppm): ≥ 80%
CC(c1ccc(Cl)nc1)[n+]1c([O-])c(-c2ccccc2F)c(=O)n2ccccc21 (centres unmarked) [Compound 273]		≤ 40		≥ 80	≤ 30	
CCOC(=O)c1c([O-])[n+](Cc2cnc(Cl)s2)c2ccccn2c1=O [Compound 700]	≥ 80		at least 80%			
O=C(Nc1ccccc1)c1c([O-])[n+](Cc2cnc(Cl)s2)c2ccccn2c1=O [Compound 660]			at least 80%			
COc1ccc(Br)cc1-c1c([O-])[n+](Cc2ccc(Cl)nc2)c2ccccn2c1=O [Compound 235]		≤ 40		≥ 80	≤ 30	
O=c1c(I)c([O-])[n+](Cc2ccc(Cl)nc2)c2ccccn12 [Compound 118, 1-[(6-chloro-3-pyridinyl)methyl]-2-hydroxy-3-iodo-4-oxo-4H-pyrido[1,2-a]pyrimidinium inner salt]	≥ 80		at least 80%	≥ 80		mortality ([1]; sprayed at 250 ppm): at least 80%; mortality [6]: ≥ 50%; mortality ([4]; sprayed at 250 ppm): ≥ 80%
O=c1c(-c2ccc(Cl)nc2)c([O-])[n+](Cc2ccc(Cl)nc2)c2ccccn12 [Compound 120]	≥ 80	≤ 40	at least 80%	≥ 80		mortality ([1]; sprayed at 250 ppm): at least 80%; mortality [6]: ≥ 50%; mortality [7]: ≥ 20%; mortality ([4]; sprayed at 250 ppm): ≥ 80%
CC(c1ccc(F)nc1)[n+]1c([O-])c(-c2ccccc2F)c(=O)n2ccccc21 (centres unmarked) [Compound 257]		≤ 40			≤ 30	
O=c1c(-c2cc(OC(F)(F)F)cc(-c3ccc(F)nc3)c2)c([O-])[n+](Cc2cnc(Cl)s2)c2ccccn12 [Compound 549]		≤ 40			≤ 30	control efficacy: feeding damage (40% or less feeding damage and/or 100% mortality) [8]: ≤ 40%
O=c1c(-c2cccc(C(F)(F)F)n2)c([O-])[n+](Cc2cnc(Cl)s2)c2ccccn12 [Compound 600]	≥ 80	≤ 40	at least 80%	≥ 80		
O=c1c(-c2cccc(C(F)(F)F)n2)c([O-])[n+](Cc2ccc(Cl)nc2)c2ccccn12 [Compound 593]	≥ 80		at least 80%			mortality ([1]; sprayed at 250 ppm): at least 80%; mortality ([4]; sprayed at 250 ppm): ≥ 80%
O=c1c(-c2cncc(C(F)(F)F)c2)c([O-])[n+](Cc2ccc(Cl)nc2)c2ccccn12 [Compound 577]	≥ 80		at least 80%			mortality ([1]; sprayed at 250 ppm): at least 80%
CC(c1cnc(Cl)s1)[n+]1c([O-])c(-c2ccccc2)c(=O)n2ccccc21 (racemic) [Compound 211]		≤ 40		≥ 80	≤ 30	
O=c1c(-c2ccc(Cl)cc2Cl)c([O-])[n+](CCC(F)=C(F)F)c2ccccn12 [Compound 373]			at least 80%			mortality [6]: ≥ 50%
COc1cc(-c2ccc(Cl)nc2)cc(-c2c([O-])[n+](Cc3cnc(Cl)s3)c3ccccn3c2=O)c1 [Compound 655]		≤ 40	at least 80%			control efficacy: feeding damage (40% or less feeding damage and/or 100% mortality) [8]: ≤ 40%
O=c1c(-c2cc(OC(F)(F)F)ccc2F)c([O-])[n+](Cc2ccc(Cl)nc2)c2ccccn12 [Compound 58, 1-[(6-chloro-3-pyridinyl)methyl]-3-[2-fluoro-5-(trifluoromethoxy)phenyl]-2-hydroxy-4-oxo-4H-pyrido[1,2-a]pyrimidinium inner salt]	≥ 80	≤ 40		≥ 80		mortality ([1]; sprayed at 250 ppm): at least 80%; mortality [6]: ≥ 50%; mortality ([4]; sprayed at 250 ppm): ≥ 80%; control efficacy: feeding damage (40% or less feeding damage and/or 100% mortality) [8]: ≤ 40%
O=c1c(-c2ccc(F)nc2)c([O-])[n+](Cc2ccc(Cl)nc2)c2ccccn12 [Compound 119]	≥ 80		at least 80%	≥ 80		mortality ([1]; sprayed at 250 ppm): at least 80%; mortality [6]: ≥ 50%; mortality [7]: ≥ 20%
O=c1c(-c2ccnc(Br)c2)c([O-])[n+](Cc2cnc(Br)s2)c2ccccn12 [Compound 628]		≤ 40	at least 80%			control efficacy: feeding damage (40% or less feeding damage and/or 100% mortality) [8]: ≤ 40%
O=c1c(-c2ccnc(Cl)c2)c([O-])[n+](Cc2cnc(Cl)s2)c2ccccn12 [Compound 598]	≥ 80	≤ 40	at least 80%	≥ 80		control efficacy: feeding damage (40% or less feeding damage and/or 100% mortality) [8]: ≤ 40%
CC(c1cnc(Cl)s1)[n+]1c([O-])c(-c2ccccc2F)c(=O)n2ccccc21 (centres unmarked) [Compound 229]		≤ 40			≤ 30	
O=C(c1c([O-])[n+](Cc2ccc(Cl)nc2)c2ccccn2c1=O)C(F)(F)C(F)(F)F [Compound 714]			at least 80%			
O=c1c(-c2ccnc(Br)c2)c([O-])[n+](Cc2ccc(Cl)nc2)c2ccccn12 [Compound 537]	≥ 80	≤ 40	at least 80%	≥ 80		
CC(c1cnc(Cl)s1)[n+]1c([O-])c(-c2ccc(F)cc2)c(=O)n2ccccc21 (racemic) [Compound 212]		≤ 40		≥ 80	≤ 30	
COc1ccccc1-c1c([O-])[n+](C(C)c2ccc(F)nc2)c2ccccn2c1=O (centres unmarked) [Compound 258]				≥ 80	≤ 30	
O=c1c(-c2ccccc2)c([O-])[n+](CC(F)(F)F)c2sccn12 [Compound 134]	≥ 80					mortality [6]: ≥ 50%
COc1ccccc1-c1c([O-])[n+](C(C)c2ccc(Cl)nc2)c2ccccn2c1=O (centres unmarked) [Compound 262]		≤ 40		≥ 80	≤ 30	
COc1ccccc1-c1c([O-])[n+](Cc2ccc(Cl)nc2)c2sccn2c1=O [Compound 158]					≤ 30	
